The source of these data is PubChem BioAssay AID1347426 (Functional Genomics Laboratory (NCATS/FGL), 2020).

Screen size: about 31,000 sequences; about 1,400 (4.5%) were called active.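 The calls were made as follows: active = median seed-adjusted z-score above 1 or below -1; inactive = the rest.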 The list shows a part of the results.

The nature of this assay: Novel Modifiers of Survival Motor Neuron (SMN) Protein: Gene Identification via Genome-wide siRNA Screen.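 Also: luminescence tracks full-length SMN protein made from the SMN2 reporter.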 To be noted: HEK293T SMN2-luciferase reporter, siRNA knockdown, 72 h; actives lie on both sides. In a few lines: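 siRNA screen, 10418 genes ×3 siRNAs; 1 pmol/well, lipid reverse transfection into HEK293T SMN2-luc reporter line. 72 h, 37 °C, 5% CO2; ONE-Glo readout. Data: neg-ctrl normalized, log10, MAD; hit = MAD >1.0 or < -1.0.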
In general terms: Reporter assays use an easily measured gene product as a stand-in for the process of interest.
For the sequence ACAAUAUCCAGGACCACAATT against DAO, the median seed-adjusted z-score is inactive: -0.00887. The value for GGCGUGAAAUGACUAGAUUTT against ABCD3 was inactive: -0.24; that for GCCUGAUCGUAUUACACUUTT against PPP6C was inactive: -0.0212; that for GCAUCGCAAACUUCACCAATT against ACLY was inactive: 0.478. In the case of GGAAGAAGAUAUUCGGGAATT against MYBL1, the median seed-adjusted z-score is inactive: 0.344. Turning to CGAGUCAACUGAUUGUGGATT against YKT6, the median seed-adjusted z-score is inactive: -0.065. The value for GUUAUGCCUUUAUUAAUUUTT against SF3B4 was active: -2.56; that for GGAGGAGGCUACUACCACUTT against NDUFS7 was inactive: -0.386. Under GCCCUCCUAUGAAAACGCATT against ZNF77 stands inactive: 0.345.

Regarding GAAUCUUAAUAUUCGAAGUTT against XIAP, the median seed-adjusted z-score is inactive: -0.0329. The value for GAGUUUGAUGUUUCCGGAATT against ZNF407 was inactive: 0.00802; that for CCCUGAUGUUAUAACGAAATT against GLT6D1 was inactive: 0.145. On to GGCUCGUAUCAACACCUAUTT against SATB1, for which the median seed-adjusted z-score is inactive: 0. Under AGAUCCUGAUGUUACGCAUTT against PHKG2 stands inactive: -0.371; under CGCUGUAGUUUACAAUGCATT against KLHL12, inactive: -0.0991. In the case of GAUGAUGUCUGAAGACCGATT against GFPT2, the median seed-adjusted z-score was inactive: 0.412. Under GCAUUAUCCACGAGGCAAATT against ATP6V1H stands inactive: 0.146.

Turning to CCCUUUUCUUUAUCCCUGATT against IL9R, the median seed-adjusted z-score was active: -1.33. Consider CCAUCCAGUUUUUCCAGAATT against MRAS, for which the median seed-adjusted z-score was inactive: 0.032. With GGACAACAGGAGUCAGGUATT against AQP4, the median seed-adjusted z-score was inactive: -0.361. Under GGAUUUCUACCGCUCCACGTT against MYCL1 stands inactive: 0.0658. On to GCAGAGCUGGAAUCCAGGATT against KRT40, for which the median seed-adjusted z-score was inactive: -0.324.

With GGAAGAGGAGUAGACCUUATT against RAB5A, the median seed-adjusted z-score is inactive: 0.244. With CAUCACUGCGAUUUCCUGATT against 1-Sep, the median seed-adjusted z-score was inactive: 0.0103. The value for CCACUAAAGUGUCCUACCATT against GCM2 was inactive: -0.241; that for CCACUCUCAUCAAAUCCGATT against MLL2 was active: -2.11. Under AAGUUCAGUUUUGACAUCATT against RTN4RL1 stands inactive: -0.537; under GAAGUACCCUUACAUACCATT against PKP4, inactive: 0.368; under GCUUCGGUAUAAUAGGUCUTT against PUM2, inactive: -0.129. As for AUAUUUUAAAGGACCAGAATT against IL12B, the median seed-adjusted z-score was inactive: 0.409. On to GCAGAAGCCUGGAACUCUATT against RNASET2, for which the median seed-adjusted z-score was inactive: -0.126. As for CAGAAUCGCUUCUACAAGATT against SPAG6, the median seed-adjusted z-score was inactive: -0.439.

Consider GCUACAUCCUGUUCGAGAATT against CYP27A1, for which the median seed-adjusted z-score was inactive: -0.391. As to AGACAAUGGAAAUCCCAAATT against LRP2BP, the median seed-adjusted z-score was inactive: -0.547. CACUCAACAUUACAGAUUUTT against ZNF514: the median seed-adjusted z-score was inactive: 0.125. Take CCUACGUUACUUUCCCUCATT against FOXD4L6: the median seed-adjusted z-score was inactive: -0.137. Consider CCUUGACUGUGGACAACAATT against PURA, for which the median seed-adjusted z-score is inactive: -0.0185.

Regarding GUGAAAUCCAUGUUUCAUATT against SMYD1, the median seed-adjusted z-score is inactive: -0.0827. The value for GGACUAUGCAAAGAAUCUATT against RPS6KB1 was active: 1.4. Under GUCUCGAUGGAGCAAAGUATT against TCERG1 stands inactive: 0.415; under AGGUUUUUAUCGACACUAUTT against CHRNA1, inactive: -0.32; under GGAAAUCUGAAGACGAUAATT against CCAR1, active: -1.18. In the case of GACUAUCCAAGGGAACAUUTT against ESRRB, the median seed-adjusted z-score was inactive: -0.611. Turning to CGAGAAUAAGUCCAAGUUUTT against ENO3, the median seed-adjusted z-score was inactive: -0.142. In the case of CACUGGAACUCUACCAUCATT against MYBL2, the median seed-adjusted z-score is inactive: 0.592. Consider GGAAGUCUACGGGACCGAATT against LTF, for which the median seed-adjusted z-score was inactive: 0.236.

As for GGAGGACUAUGUGCUUAGATT against 5-Mar, the median seed-adjusted z-score was inactive: 0. In the case of GGAGUUAUUUGAACGGCAATT against INO80, the median seed-adjusted z-score is inactive: 0.0546.

With CCACCAUACUAAUACCCUATT against AKAP11, the median seed-adjusted z-score is inactive: -0.0405. Under GGAUGAAGUUAUCGAAAGATT against ALDH1A2 stands inactive: 0.564. For the sequence GGUCUGAUCCAACUUCGUATT against ATP1B3, the median seed-adjusted z-score was inactive: -0.225.

For GGAAAGCAAUUCCUAGAAATT against PDC, the median seed-adjusted z-score is inactive: -0.541. The value for GGCGAUACCUGGUCAUUGATT against SMARCA1 was inactive: 0.6; that for GCUCCAAAUGGAGAGUGUATT against PRKCDBP was inactive: 0.244. The value for AGCUUCUUCUCGAUACUUUTT against SLC16A11 was inactive: -0.396; that for CCGAGAGUAUGUCGACUUATT against CBFB was inactive: -0.0379. The value for GCAGAUCAAGUUCGAGAAATT against AURKAIP1 was inactive: 0.067. Regarding GCAAUAUCAGAUGCACAGATT against F8, the median seed-adjusted z-score was inactive: -0.0992. The value for CUCUGUCUCUAAUCGACAATT against UTY was inactive: -0.538; that for GGAAACAACUUUUAUGAAUTT against GCHFR was inactive: -0.559; that for GAGCUUAACUACUUAGGGATT against DHRS7 was inactive: 0.255. Regarding CAUUCAUCCAUCUCACAUATT against CLSTN2, the median seed-adjusted z-score was inactive: 0.

With GCAUCGCUGUUACCCAUCUTT against CCRN4L, the median seed-adjusted z-score was inactive: -0.572. For CAGUGUUCCUAUUAGAUGATT against LONP2, the median seed-adjusted z-score is active: 1.52. Under AGAGCUAGAUGGAAGAACATT against SFRS3 stands active: 2.74; under GGCACAGAUAGAUCGAUUUTT against RANBP9, inactive: -0.467. On to GCAGGAUUGUGAUCCACCATT against PCGF3, for which the median seed-adjusted z-score was inactive: 0.876. In the case of CCAUAUUUGCACUAAAGGATT against PCTK1, the median seed-adjusted z-score is inactive: -0.729. Under CCGUGGAGCUAAACAAUAUTT against MASP1 stands inactive: 0.653.
